The text below walks through data of patent US20230103330A1, “MECHANISTIC BIOMARKER FOR PREDICTING THE SURVIVAL OF PANCREATIC CANCER PATIENTS” (The Regents of the University of California, priority 2020, published 2023).

Sequences of proteins named here, by UniProt entry; tags and fusion partners are left off. A change or cut given only in a name is not applied to a line headed by its entry. A line that says so, or that is headed by a name, gives the form on record, which may keep a tag or linker.
HA-PKCβII wild type, faster-mobility unphosphorylated species of 35S-labeled (newly synthesized) PKC (P68403, form named): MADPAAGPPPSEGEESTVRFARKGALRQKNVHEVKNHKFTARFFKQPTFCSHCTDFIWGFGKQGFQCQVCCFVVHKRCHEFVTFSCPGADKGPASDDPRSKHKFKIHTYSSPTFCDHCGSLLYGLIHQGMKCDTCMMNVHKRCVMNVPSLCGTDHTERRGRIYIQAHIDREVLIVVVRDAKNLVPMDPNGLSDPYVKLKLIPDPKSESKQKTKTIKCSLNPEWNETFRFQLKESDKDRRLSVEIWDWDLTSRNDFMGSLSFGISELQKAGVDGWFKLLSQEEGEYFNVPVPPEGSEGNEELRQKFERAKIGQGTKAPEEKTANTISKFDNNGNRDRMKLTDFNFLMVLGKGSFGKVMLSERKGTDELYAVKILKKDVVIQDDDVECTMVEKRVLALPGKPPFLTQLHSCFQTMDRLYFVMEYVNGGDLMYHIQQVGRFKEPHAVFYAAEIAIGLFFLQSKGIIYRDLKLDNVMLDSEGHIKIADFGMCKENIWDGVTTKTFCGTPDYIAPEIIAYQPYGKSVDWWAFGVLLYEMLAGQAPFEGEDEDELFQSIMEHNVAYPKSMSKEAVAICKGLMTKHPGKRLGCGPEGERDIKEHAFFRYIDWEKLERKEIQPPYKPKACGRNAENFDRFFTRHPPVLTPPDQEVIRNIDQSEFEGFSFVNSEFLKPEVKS
HA-PKCβII K371R (kinase-dead) (P68403, form named): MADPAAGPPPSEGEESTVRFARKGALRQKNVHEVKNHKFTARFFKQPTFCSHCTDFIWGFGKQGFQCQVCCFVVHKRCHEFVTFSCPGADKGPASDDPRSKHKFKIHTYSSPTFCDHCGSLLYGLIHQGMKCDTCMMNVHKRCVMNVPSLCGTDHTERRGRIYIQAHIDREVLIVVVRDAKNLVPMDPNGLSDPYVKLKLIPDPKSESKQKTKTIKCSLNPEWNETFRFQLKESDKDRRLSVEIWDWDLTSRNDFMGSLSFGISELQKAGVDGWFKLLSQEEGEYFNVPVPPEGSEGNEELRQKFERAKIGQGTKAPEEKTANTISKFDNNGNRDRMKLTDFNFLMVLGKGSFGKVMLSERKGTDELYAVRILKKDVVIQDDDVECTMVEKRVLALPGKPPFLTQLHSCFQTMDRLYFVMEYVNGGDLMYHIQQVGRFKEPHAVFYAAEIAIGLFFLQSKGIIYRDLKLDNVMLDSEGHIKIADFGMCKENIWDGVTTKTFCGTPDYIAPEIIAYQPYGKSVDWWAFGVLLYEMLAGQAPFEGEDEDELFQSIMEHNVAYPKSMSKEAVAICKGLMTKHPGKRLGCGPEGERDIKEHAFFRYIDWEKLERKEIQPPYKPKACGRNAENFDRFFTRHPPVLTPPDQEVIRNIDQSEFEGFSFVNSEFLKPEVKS

Results are given in words; binding and its absence hold for the method and conditions named. For some assays here: Binding seen in cells or lysates may run through a third protein. Some entries that bind do so weakly or less than the wild type. Sequences can lack the tags named with a protein.

Assay [1] addresses HA-PKCβII wild type, faster-mobility unphosphorylated species of 35S-labeled (newly synthesized) PKC (rat) (UniProt P68403). The assay can be described thus: 35S pulse-chase in COS7 cells, FLAG immunoprecipitation, autoradiography.
The target in assay [2] is HA-PKCβII K371R (kinase-dead) (rat) (UniProt P68403). The assay can be described thus: co-immunoprecipitation (FLAG IP) from COS7 cells, immunoblot. On the technique in general: In western blotting, separated proteins are transferred to a membrane and probed.

B1: FLAG-PHLPP1 (PH domain and leucine rich repeat protein phosphatase 1) (enzyme, UniProt O60346-2 1-1205, looked up, not shown: small tags and cut ends)
chain: MDSEIGCLIRFYAGKPHSTGSSERIQLSGMYNVRKGKMQLPVNRWTRRQVILCGTCLIVSSVKDSLTGKMHVLPLIGGKVEEVKKHQHCLAFSSSGPQSQTYYICFDTFTEYLRWLRQVSKVASQRISSVDLSCCSLEHLPANLFYSQDLTHLNLKQNFLRQNPSLPAARGLNELQRFTKLKSLNLSNNHLGDFPLAVCSIPTLAELNVSCNALRSVPAAVGVMHNLQTFLLDGNFLQSLPAELENMKQLSYLGLSFNEFTDIPEVLEKLTAVDKLCMSGNCVETLRLQALRKMPHIKHVDLRLNVIRKLIADEVDFLQHVTQLDLRDNKLGDLDAMIFNNIEVLHCERNQLVTLDICGYFLKALYASSNELVQLDVYPVPNYLSYMDVSRNRLENVPEWVCESRKLEVLDIGHNQICELPARLFCNSSLRKLLAGHNQLARLPERLERTSVEVLDVQHNQLLELPPNLLMKADSLRFLNASANKLESLPPATLSEETNSILQELYLTNNSLTDKCVPLLTGHPHLKILHMAYNRLQSFPASKMAKLEELEEIDLSGNKLKAIPTTIMNCRRMHTVIAHSNCIEVFPEVMQLPEIKCVDLSCNELSEVTLPENLPPKLQELDLTGNPRLVLDHKTLELLNNIRCFKIDQPSTGDASGAPAVWSHGYTEASGVKNKLCVAALSVNNFCDNREALYGVFDGDRNVEVPYLLQCTMSDILAEELQKTKNEEEYMVNTFIVMQRKLGTAGQKLGGAAVLCHIKHDPVDPGGSFTLTSANVGKCQTVLCRNGKPLPLSRSYIMSCEEELKRIKQHKAIITEDGKVNGVTESTRILGYTFLHPSVVPRPHVQSVLLTPQDEFFILGSKGLWDSLSVEEAVEAVRNVPDALAAAKKLCTLAQSYGCHDSISAVVVQLSVTEDSFCCCELSAGGAVPPPSPGIFPPSVNMVIKDRPSDGLGVPSSSSGMASEISSELSTSEMSSEVGSTASDEPPPGALSENSPAYPSEQRCMLHPICLSNSFQRQLSSATFSSAFSDNGLDSDDEEPIEGVFTNGSRVEVEVDIHCSRAKEKEKQQHLLQVPAEASDEGIVISANEDEPGLPRKADFSAVGTIGRRRANGSVAPQERSHNVIEVATDAPLRKPGGYFAAPAQPDPDDQFIIPPELEEEVKEIMKHHQEQQQQQQPPPPPQLQPQLPRHYQLDQLPDYYDTPL
Regarding B1, the binding result in assay [1] and in assay [2] was “binds” each time.
